Data reported in the supplement of paper PMC10849652.
The other results are listed elsewhere or left out.

Amino acid sequences for entries named in this document (tags omitted). A change or cut given only in a name is not applied to a line headed by its entry.
UniProt Q5TBB1: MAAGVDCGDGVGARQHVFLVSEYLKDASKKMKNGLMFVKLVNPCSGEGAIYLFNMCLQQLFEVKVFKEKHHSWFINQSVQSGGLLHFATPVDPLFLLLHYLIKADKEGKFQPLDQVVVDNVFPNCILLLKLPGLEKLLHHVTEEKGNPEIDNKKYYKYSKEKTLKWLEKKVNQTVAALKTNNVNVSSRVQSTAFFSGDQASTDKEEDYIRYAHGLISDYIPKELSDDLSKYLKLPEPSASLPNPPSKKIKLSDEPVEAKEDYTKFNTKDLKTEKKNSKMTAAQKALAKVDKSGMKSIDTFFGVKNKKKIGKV
UniProt Q8IYW5, whole entry, looked up: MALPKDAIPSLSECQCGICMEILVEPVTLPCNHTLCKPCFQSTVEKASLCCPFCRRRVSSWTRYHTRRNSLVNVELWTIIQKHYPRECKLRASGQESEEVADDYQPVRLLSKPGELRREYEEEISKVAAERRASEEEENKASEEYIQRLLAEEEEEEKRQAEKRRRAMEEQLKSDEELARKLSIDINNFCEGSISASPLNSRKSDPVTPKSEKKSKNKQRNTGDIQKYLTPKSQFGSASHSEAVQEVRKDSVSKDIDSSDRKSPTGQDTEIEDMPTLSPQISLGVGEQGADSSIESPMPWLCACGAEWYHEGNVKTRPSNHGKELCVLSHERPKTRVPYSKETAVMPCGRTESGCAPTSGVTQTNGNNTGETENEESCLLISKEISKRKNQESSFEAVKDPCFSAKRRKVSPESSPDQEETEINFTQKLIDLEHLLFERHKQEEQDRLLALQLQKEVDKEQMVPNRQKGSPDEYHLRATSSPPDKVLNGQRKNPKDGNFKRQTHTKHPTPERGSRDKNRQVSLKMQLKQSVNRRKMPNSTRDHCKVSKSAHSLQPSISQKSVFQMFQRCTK
UniProt Q8IXI1, whole entry, looked up: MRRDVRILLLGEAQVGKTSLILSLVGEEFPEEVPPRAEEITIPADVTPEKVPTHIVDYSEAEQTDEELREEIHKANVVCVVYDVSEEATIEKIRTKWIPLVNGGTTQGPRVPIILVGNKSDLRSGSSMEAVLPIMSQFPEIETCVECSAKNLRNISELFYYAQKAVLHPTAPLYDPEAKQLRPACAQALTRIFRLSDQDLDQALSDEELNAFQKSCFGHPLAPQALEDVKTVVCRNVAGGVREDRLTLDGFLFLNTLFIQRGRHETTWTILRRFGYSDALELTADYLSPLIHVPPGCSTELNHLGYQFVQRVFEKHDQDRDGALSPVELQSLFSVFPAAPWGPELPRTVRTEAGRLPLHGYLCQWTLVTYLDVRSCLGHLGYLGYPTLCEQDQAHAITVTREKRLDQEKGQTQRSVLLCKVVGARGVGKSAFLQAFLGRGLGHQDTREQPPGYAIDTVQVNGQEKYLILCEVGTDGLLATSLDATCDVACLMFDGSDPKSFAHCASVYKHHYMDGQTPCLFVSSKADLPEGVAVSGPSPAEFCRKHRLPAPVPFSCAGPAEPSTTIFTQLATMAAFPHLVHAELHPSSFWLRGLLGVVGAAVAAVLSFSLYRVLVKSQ
UniProt O00584, whole entry, looked up: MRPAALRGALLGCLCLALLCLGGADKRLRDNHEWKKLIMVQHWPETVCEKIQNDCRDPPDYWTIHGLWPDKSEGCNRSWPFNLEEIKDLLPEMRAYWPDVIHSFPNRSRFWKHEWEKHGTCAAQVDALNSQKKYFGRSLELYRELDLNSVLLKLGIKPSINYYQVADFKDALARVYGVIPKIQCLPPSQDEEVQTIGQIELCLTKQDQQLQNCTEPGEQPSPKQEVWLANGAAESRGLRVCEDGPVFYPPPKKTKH
UniProt Q9BWH6: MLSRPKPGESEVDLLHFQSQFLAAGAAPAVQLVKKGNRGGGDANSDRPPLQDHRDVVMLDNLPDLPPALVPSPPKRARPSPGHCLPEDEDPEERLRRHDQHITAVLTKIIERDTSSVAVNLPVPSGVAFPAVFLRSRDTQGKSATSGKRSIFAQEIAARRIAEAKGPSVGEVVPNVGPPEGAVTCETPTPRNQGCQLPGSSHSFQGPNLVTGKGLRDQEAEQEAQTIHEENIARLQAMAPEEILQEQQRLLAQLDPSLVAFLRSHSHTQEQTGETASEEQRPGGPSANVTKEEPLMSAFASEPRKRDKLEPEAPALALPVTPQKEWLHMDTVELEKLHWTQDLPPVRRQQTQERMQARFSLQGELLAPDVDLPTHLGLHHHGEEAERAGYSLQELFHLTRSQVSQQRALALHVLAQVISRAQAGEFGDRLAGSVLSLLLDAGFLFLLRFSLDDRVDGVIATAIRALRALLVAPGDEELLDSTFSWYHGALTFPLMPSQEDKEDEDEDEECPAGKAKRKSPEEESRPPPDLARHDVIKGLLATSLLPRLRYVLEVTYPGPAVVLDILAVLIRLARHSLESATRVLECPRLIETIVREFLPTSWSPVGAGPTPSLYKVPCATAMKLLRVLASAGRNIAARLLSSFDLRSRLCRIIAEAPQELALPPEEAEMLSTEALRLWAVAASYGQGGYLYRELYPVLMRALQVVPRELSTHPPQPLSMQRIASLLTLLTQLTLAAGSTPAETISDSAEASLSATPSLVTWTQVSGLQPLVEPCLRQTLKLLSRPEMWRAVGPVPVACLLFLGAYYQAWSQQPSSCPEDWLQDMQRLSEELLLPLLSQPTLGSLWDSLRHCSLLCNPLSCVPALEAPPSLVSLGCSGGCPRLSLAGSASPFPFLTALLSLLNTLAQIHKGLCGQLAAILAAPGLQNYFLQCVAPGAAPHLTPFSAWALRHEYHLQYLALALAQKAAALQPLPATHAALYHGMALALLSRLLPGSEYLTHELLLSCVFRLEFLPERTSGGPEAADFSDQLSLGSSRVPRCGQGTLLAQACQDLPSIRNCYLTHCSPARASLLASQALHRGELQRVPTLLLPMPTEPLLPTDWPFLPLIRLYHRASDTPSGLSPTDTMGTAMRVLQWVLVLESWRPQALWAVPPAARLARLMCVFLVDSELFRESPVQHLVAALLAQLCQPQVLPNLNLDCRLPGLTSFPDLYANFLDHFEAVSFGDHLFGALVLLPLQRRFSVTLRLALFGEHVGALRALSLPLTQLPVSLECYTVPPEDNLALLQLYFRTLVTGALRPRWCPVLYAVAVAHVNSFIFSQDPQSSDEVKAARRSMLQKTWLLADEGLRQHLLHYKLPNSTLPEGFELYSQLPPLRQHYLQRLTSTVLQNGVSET
UniProt Q01974, whole entry, looked up: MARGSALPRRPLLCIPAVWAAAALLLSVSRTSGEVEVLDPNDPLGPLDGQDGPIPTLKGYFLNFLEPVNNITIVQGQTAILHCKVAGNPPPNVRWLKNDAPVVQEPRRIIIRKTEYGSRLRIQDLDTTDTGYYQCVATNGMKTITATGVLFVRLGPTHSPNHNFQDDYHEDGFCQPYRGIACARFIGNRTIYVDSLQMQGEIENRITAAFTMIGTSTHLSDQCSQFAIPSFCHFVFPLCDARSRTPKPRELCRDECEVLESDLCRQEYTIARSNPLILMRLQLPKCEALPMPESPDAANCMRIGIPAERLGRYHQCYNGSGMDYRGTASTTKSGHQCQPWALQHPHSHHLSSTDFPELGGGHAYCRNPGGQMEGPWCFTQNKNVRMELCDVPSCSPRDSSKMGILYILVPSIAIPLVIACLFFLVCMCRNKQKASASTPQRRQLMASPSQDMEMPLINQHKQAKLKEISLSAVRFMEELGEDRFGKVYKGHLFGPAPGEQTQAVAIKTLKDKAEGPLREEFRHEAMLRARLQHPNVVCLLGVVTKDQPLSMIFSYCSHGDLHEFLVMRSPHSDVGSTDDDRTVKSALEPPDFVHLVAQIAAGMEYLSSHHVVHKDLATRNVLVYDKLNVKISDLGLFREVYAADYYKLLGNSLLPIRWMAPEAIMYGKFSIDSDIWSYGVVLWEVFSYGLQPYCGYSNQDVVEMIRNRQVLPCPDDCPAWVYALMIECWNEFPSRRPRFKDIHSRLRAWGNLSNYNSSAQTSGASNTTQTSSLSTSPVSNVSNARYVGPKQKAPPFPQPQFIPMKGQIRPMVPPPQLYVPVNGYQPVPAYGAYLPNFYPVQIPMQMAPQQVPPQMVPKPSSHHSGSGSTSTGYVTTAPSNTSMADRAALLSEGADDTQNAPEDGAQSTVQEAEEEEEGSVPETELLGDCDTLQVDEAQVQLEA
UniProt Q9H4A4: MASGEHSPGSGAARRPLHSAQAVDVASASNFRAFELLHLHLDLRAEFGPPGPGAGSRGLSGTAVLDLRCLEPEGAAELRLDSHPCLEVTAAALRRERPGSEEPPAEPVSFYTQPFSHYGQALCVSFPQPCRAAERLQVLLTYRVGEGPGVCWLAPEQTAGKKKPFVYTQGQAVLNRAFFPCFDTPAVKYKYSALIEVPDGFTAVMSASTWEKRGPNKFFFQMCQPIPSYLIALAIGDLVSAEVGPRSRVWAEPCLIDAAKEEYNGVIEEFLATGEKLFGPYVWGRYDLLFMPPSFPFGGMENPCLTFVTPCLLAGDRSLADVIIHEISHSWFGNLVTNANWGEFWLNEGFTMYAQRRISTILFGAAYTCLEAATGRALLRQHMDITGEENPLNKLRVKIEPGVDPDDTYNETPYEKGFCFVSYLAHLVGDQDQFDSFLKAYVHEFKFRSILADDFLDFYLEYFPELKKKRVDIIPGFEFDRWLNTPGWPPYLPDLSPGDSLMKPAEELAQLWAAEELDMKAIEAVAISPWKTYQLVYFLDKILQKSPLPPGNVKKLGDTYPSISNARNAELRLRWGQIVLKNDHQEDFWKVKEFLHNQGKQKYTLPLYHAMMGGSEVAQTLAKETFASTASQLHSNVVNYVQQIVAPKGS
UniProt Q9H9A7: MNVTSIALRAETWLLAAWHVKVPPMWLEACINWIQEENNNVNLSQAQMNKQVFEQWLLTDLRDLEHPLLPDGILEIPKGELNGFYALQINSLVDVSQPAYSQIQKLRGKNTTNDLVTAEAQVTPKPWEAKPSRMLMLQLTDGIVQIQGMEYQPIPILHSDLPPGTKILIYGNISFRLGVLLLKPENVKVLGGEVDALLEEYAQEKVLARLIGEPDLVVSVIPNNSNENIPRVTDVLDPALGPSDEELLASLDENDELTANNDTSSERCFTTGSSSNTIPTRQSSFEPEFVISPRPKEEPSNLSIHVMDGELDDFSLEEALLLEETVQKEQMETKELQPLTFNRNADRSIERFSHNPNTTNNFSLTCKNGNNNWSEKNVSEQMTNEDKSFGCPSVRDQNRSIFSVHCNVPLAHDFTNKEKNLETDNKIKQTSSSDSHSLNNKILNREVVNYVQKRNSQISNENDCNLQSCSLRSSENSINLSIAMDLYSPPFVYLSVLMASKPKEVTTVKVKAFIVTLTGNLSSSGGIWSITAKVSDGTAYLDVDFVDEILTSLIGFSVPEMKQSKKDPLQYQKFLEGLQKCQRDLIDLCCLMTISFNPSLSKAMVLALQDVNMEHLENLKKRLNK
UniProt O75792: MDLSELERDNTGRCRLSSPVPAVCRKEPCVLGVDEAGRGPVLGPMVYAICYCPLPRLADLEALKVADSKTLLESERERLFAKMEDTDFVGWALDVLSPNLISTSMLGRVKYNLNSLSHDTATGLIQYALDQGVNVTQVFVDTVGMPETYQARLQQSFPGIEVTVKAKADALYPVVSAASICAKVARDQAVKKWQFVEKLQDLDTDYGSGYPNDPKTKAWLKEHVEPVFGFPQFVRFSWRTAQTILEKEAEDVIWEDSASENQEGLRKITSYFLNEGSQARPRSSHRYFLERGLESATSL

Key:
Test in all cases: log2 fold change, soluble protein after heating vs DMSO (PISA); higher = thermal stabilisation; K562 lysate, 10 uM; active = over 0.2 and 3.5 SD of the protein, either way, in both replicates (recomputed)
erlotinib = compound: C#Cc1cccc(Nc2ncnc3cc(OCCOC)c(OCCOC)cc23)c1 [erlotinib]
Method in brief: (§1)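 Pellets of K562 cells were dounce-homogenised in PBS pH 7.4 with 1 mM MgCl2, and the crude extract was held at 1 mg/mL protein for a 30 min treatment with 10 μM compound. Aliquots were heated for 3 min over 48°C-58°C and pooled before NP-40 was added to 0.5% at 4°C. The supernatant from 21,000xg for 90 min was quantified by TMTpro 16plex LC-MS/MS with channel sums equalised. Values are reported from duplicates as log-two fold change in thermal stability relative to solvent controls.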

[1] = compound: C/C(=N\NC(=O)C1=CC(=CC=C1)S(=O)(=O)N2CCOCC2)/C3=C(C=CC(=C3)Cl)O
Method in brief: as §1

[2] = compound: C1=CC(=CC=C1C2=NC3=C(N2)C=C(C=C3)C(=O)N)OC4=CC=C(C=C4)Cl
Method in brief: as §1

[3] = compound: C1=CC2=C(C=CC(=C2)/C=C\3/C(=O)NC(=NCC4=CC=CS4)S3)N=C1
Method in brief: as §1

[4] = compound: C1=CC2=NC=CN=C2C=C1/C=C/3\C(=O)NC(=O)S3
Method in brief: as §1

[5] = compound: C1=CC=C(C=C1)C2=NC(=C(N2)C3=CC=NC=C3)C4=CC(=C(C=C4)Cl)O
Method in brief: as §1

[6] = compound: C1=CC=C2C(=C1)C3=NNC4=CC=CC(=C43)C2=O
Method in brief: as §1

[7] = compound: C1CCN(C1)C(=O)NC2=CC=CC(=C2)NC3=NC=C(C(=N3)NCCC4=CN=CN4)Br
Method in brief: as §1

[8] = compound: C1CN(CCC1(CC2=CC=C(C=C2)Cl)N)C3=NC=NC4=C3C=CN4
Method in brief: as §1

IRAK-1-4 Inhibitor I = compound: C1COCCN1CCN2C3=CC=CC=C3N=C2NC(=O)C4=CC(=CC=C4)[N+](=O)[O-] [IRAK-1-4 Inhibitor I]
Method in brief: as §1

ibrutinib = compound: C=CC(=O)N1CCC[C@@H](n2nc(-c3ccc(Oc4ccccc4)cc3)c3c(N)ncnc32)C1 [ibrutinib]
Method in brief: as §1

[9] = compound: CC(=O)c1cnc2ccc(-c3cc(Cl)c(O)c(Cl)c3)nc2c1N[C@H]1CC[C@H](CN(C)C)CC1
Method in brief: as §1

ralimetinib = compound: CC(C)(C)Cn1c(N)nc2ccc(-c3[nH]c(C(C)(C)C)nc3-c3ccc(F)cc3)nc21 [ralimetinib]
Method in brief: as §1

[10] = compound: CC(C)(O)CC(=O)NCCn1ccc2ncnc(Nc3ccc(Oc4cccc(C(F)(F)F)c4)c(Cl)c3)c21
Method in brief: as §1

[11] = compound: CC(C)C1=C2N=C(C=C(N2N=C1)NCC3=CC=CC=C3)NCCCCCCN
Method in brief: as §1

[12] = compound: CC1=C(C(CC(=O)N1)C2=CC=C(C=C2)C(F)(F)F)C(=O)NC3=C(C=C4C(=C3)C=NN4)F
Method in brief: as §1

[13] = compound: CC1=C(C2=C(C=C1)C(=O)C3=CC=CC=C3N2CCCN)C
Method in brief: as §1

[14] = compound: CC1=C(C=C(C=C1)NC(=O)C2=CC(=CC=C2)C(C)(C)C#N)NC3=CC4=C(C=C3)N=CN(C4=O)C
Method in brief: as §1

[15] = compound: CC1=C(C=C(C=C1)NC(=O)C2=CC(=CC=C2)N(C)C)NC(=O)C3=CC=C(C=C3)O
Method in brief: as §1

[16] = compound: CC1=CC=C(C=C1)SC2=C3C=C(SC3=CN=C2)C(=O)N
Method in brief: as §1

Measured: log2 fold change

RPL18A (UniProt Q02543)
inactive: erlotinib -0.02 | [1] -0.094 | [2] -0.003 | [3] -0.059 | [4] 0.009 | [5] 0.024 | [6] -0.023 | [7] 0.023 | [8] -0.003 | IRAK-1-4 Inhibitor I -0.002 | ibrutinib -0.02 | [9] 0.002 | ralimetinib -0.018 | [10] -0.017 | [11] 0.034 | [12] 0.005 | [13] -0.012 | [14] -0.054 | [15] -0.015 | [16] 0.012

RNASEH2B (UniProt Q5TBB1)
inactive: erlotinib -0.01 | [1] 0.006 | [2] -0.024 | [3] 0.019 | [4] -0.011 | [5] 0.009 | [6] 0.024 | [7] -0.01 | [8] -0.041 | IRAK-1-4 Inhibitor I -0.003 | ibrutinib -0.001 | [9] -0.032 | ralimetinib 0.026 | [10] 0 | [11] 0.031 | [12] -0.025 | [13] 0.024 | [14] 0.005 | [15] 0.025 | [16] 0.009

RPL36 (UniProt Q9Y3U8)
inactive: erlotinib 0.021 | [1] -0.702 | [2] -0.034 | [3] -0.017 | [4] 0.011 | [5] 0.009 | [6] 0.033 | [7] 0.017 | [8] -0.006 | IRAK-1-4 Inhibitor I 0.022 | ibrutinib -0.003 | [9] -0.002 | ralimetinib 0.004 | [10] -0.025 | [11] -0.043 | [12] -0.02 | [13] -0.016 | [14] -0.004 | [15] -0.001 | [16] 0.003

RNF168 (UniProt Q8IYW5)
inactive: erlotinib -0.018 | [1] -0.023 | [2] 0.001 | [3] -0.081 | [4] 0.037 | [5] -0.007 | [6] -0.114 | [8] 0.053 | IRAK-1-4 Inhibitor I 0.008 | ibrutinib 0.155 | [9] 0.144 | ralimetinib 0.004 | [10] -0.041 | [11] -0.034 | [12] -0.071 | [13] 0.031 | [14] 0.026 | [15] -0.04 | [16] 0.011
active: [7] -0.311

RPL26L1 (UniProt Q9UNX3)
inactive: erlotinib -0.011 | [1] -0.047 | [2] -0.054 | [3] -0.001 | [4] -0.025 | [5] 0.03 | [6] 0.067 | [7] 0.055 | [8] -0.028 | IRAK-1-4 Inhibitor I -0.016 | ibrutinib -0.01 | [9] 0.029 | ralimetinib -0.024 | [10] 0.031 | [11] 0.005 | [12] -0.012 | [13] -0.039 | [14] -0.038 | [15] -0.018 | [16] 0.038

RHOT2 (UniProt Q8IXI1)
inactive: erlotinib 0.001 | [1] -0.048 | [2] -0.004 | [3] 0.007 | [4] 0.047 | [5] 0.003 | [6] 0.004 | [7] -0.028 | [8] 0.068 | IRAK-1-4 Inhibitor I 0.051 | ibrutinib -0.005 | [9] -0.014 | ralimetinib 0.006 | [10] -0.007 | [11] -0.032 | [12] -0.093 | [13] 0.012 | [14] 0.028 | [15] 0.01 | [16] 0.021

RPL19 (UniProt P84098)
inactive: erlotinib -0.076 | [1] -0.071 | [2] -0.064 | [3] -0.014 | [4] 0.017 | [5] 0.001 | [6] 0.069 | [7] 0.015 | [8] -0.049 | IRAK-1-4 Inhibitor I -0.022 | ibrutinib -0.022 | [9] 0.036 | ralimetinib 0.025 | [10] -0.025 | [11] 0.014 | [12] -0.01 | [13] -0.018 | [14] -0.055 | [15] 0.002 | [16] 0.012

RPL23 (UniProt P62829)
inactive: erlotinib -0.025 | [1] -0.158 | [2] 0.023 | [3] -0.003 | [4] -0.015 | [5] 0.007 | [6] -0.015 | [7] 0.007 | [8] 0.004 | IRAK-1-4 Inhibitor I 0.006 | ibrutinib -0.048 | [9] -0.016 | ralimetinib -0.006 | [10] -0.018 | [11] 0.014 | [12] 0 | [13] -0.066 | [14] 0.011 | [15] 0.011 | [16] 0.01

RNASET2 (UniProt O00584)
inactive: erlotinib 0.003 | [1] 0.016 | [2] 0.024 | [3] -0.05 | [4] -0.017 | [5] -0.02 | [6] 0.009 | [7] -0.002 | [8] -0.001 | IRAK-1-4 Inhibitor I 0.025 | ibrutinib 0.035 | [9] -0.021 | ralimetinib -0.012 | [10] -0.015 | [11] -0.014 | [12] 0.016 | [13] -0.01 | [14] -0.01 | [15] 0.015 | [16] -0.003

RPAP1 (UniProt Q9BWH6)
inactive: erlotinib 0.05 | [1] -0.078 | [2] 0.019 | [3] 0.016 | [4] 0.007 | [5] -0.028 | [6] 0.001 | [7] -0.001 | [8] 0.02 | IRAK-1-4 Inhibitor I 0.005 | ibrutinib -0.016 | [9] 0.049 | ralimetinib 0.02 | [10] -0.015 | [11] -0.037 | [12] 0.011 | [13] -0.002 | [14] -0.013 | [15] 0.007 | [16] -0.033

ROR2 (UniProt Q01974)
inactive: erlotinib 0.007 | [1] -0.017 | [2] 0.005 | [3] 0.027 | [4] -0.019 | [5] -0.002 | [6] -0.042 | [7] 0.01 | [8] 0.074 | IRAK-1-4 Inhibitor I 0 | ibrutinib 0.034 | [9] -0.085 | ralimetinib 0.036 | [10] 0.024 | [11] -0.023 | [12] 0.084 | [13] 0.048 | [14] 0.114 | [15] 0.004 | [16] -0.022

RPL3 (UniProt P39023)
inactive: erlotinib -0.035 | [1] -0.043 | [2] -0.046 | [3] 0.033 | [4] 0 | [5] 0.016 | [6] 0.067 | [7] 0.036 | [8] -0.035 | IRAK-1-4 Inhibitor I -0.012 | ibrutinib 0.006 | [9] 0.018 | ralimetinib 0.004 | [10] 0.02 | [11] -0.011 | [12] -0.014 | [13] -0.009 | [14] -0.051 | [15] 0.008 | [16] 0.041

RNPEP (UniProt Q9H4A4)
inactive: erlotinib 0.03 | [1] 0.002 | [2] -0.002 | [3] 0.009 | [4] 0.004 | [5] -0.011 | [6] -0.01 | [7] 0.004 | [8] 0 | IRAK-1-4 Inhibitor I 0.007 | ibrutinib 0.002 | [9] 0.001 | ralimetinib -0.01 | [10] -0.002 | [11] -0.002 | [12] 0.015 | [13] 0.022 | [14] -0.006 | [15] -0.004 | [16] -0.003

Quoted from the results shown (2 entries):
RPL26L1 (UniProt Q9UNX3)
inactive: erlotinib -0.011 | [1] -0.047 | [2] -0.054 | [3] -0.001 | [4] -0.025 | [5] 0.03 | [6] 0.067 | [7] 0.055 | [8] -0.028 | IRAK-1-4 Inhibitor I -0.016 | ibrutinib -0.01 | [9] 0.029 | ralimetinib -0.024 | [10] 0.031 | [11] 0.005 | [12] -0.012 | [13] -0.039 | [14] -0.038 | [15] -0.018 | [16] 0.038

RHOT2 (UniProt Q8IXI1)
inactive: erlotinib 0.001 | [1] -0.048 | [2] -0.004 | [3] 0.007 | [4] 0.047 | [5] 0.003 | [6] 0.004 | [7] -0.028 | [8] 0.068 | IRAK-1-4 Inhibitor I 0.051 | ibrutinib -0.005 | [9] -0.014 | ralimetinib 0.006 | [10] -0.007 | [11] -0.032 | [12] -0.093 | [13] 0.012 | [14] 0.028 | [15] 0.01 | [16] 0.021

Next records follow:

RMI1 (UniProt Q9H9A7)
inactive: erlotinib -0.048 | [1] -0.082 | [2] 0.082 | [3] 0.069 | [4] 0.034 | [5] 0.027 | [6] -0.116 | [7] 0.004 | [8] -0.029 | IRAK-1-4 Inhibitor I 0.023 | ibrutinib -0.128 | [9] -0.059 | ralimetinib 0.106 | [10] -0.096 | [11] -0.011 | [12] 0.038 | [13] -0.009 | [14] -0.023 | [15] 0.049 | [16] -0.053

RNASEH2A (UniProt O75792)
inactive: erlotinib 0.026 | [1] 0.014 | [2] 0.005 | [3] -0.028 | [4] -0.011 | [5] 0.017 | [6] -0.005 | [7] -0.006 | [8] -0.032 | IRAK-1-4 Inhibitor I -0.006 | ibrutinib 0.021 | [9] 0.031 | ralimetinib -0.017 | [10] -0.002 | [11] 0.012 | [12] 0.026 | [13] 0.031 | [14] 0.015 | [15] -0.032 | [16] 0.015
